Assay [1] has as its target recombinant HB3VAR06 single-domain construct DBLξ2 (D8) (P. falciparum HB3). Put plainly: ELISA; MaxiSorp plates coated with recombinant PfEMP1 constructs (18 nM, overnight, 4°C); blocked in TSM buffer with 1% Ig-free BSA; α2M or α2M-MA (10 nM; titrated in Fig 2A); detected with anti-α2M antibodies; both purified. On the technique in general: ELISA stands for enzyme-linked immunosorbent assay.

Amino acid sequences for entries named in this document (tags omitted). A change or cut given only in a name is not applied to a line headed by its entry.
UniProt I1X0L2: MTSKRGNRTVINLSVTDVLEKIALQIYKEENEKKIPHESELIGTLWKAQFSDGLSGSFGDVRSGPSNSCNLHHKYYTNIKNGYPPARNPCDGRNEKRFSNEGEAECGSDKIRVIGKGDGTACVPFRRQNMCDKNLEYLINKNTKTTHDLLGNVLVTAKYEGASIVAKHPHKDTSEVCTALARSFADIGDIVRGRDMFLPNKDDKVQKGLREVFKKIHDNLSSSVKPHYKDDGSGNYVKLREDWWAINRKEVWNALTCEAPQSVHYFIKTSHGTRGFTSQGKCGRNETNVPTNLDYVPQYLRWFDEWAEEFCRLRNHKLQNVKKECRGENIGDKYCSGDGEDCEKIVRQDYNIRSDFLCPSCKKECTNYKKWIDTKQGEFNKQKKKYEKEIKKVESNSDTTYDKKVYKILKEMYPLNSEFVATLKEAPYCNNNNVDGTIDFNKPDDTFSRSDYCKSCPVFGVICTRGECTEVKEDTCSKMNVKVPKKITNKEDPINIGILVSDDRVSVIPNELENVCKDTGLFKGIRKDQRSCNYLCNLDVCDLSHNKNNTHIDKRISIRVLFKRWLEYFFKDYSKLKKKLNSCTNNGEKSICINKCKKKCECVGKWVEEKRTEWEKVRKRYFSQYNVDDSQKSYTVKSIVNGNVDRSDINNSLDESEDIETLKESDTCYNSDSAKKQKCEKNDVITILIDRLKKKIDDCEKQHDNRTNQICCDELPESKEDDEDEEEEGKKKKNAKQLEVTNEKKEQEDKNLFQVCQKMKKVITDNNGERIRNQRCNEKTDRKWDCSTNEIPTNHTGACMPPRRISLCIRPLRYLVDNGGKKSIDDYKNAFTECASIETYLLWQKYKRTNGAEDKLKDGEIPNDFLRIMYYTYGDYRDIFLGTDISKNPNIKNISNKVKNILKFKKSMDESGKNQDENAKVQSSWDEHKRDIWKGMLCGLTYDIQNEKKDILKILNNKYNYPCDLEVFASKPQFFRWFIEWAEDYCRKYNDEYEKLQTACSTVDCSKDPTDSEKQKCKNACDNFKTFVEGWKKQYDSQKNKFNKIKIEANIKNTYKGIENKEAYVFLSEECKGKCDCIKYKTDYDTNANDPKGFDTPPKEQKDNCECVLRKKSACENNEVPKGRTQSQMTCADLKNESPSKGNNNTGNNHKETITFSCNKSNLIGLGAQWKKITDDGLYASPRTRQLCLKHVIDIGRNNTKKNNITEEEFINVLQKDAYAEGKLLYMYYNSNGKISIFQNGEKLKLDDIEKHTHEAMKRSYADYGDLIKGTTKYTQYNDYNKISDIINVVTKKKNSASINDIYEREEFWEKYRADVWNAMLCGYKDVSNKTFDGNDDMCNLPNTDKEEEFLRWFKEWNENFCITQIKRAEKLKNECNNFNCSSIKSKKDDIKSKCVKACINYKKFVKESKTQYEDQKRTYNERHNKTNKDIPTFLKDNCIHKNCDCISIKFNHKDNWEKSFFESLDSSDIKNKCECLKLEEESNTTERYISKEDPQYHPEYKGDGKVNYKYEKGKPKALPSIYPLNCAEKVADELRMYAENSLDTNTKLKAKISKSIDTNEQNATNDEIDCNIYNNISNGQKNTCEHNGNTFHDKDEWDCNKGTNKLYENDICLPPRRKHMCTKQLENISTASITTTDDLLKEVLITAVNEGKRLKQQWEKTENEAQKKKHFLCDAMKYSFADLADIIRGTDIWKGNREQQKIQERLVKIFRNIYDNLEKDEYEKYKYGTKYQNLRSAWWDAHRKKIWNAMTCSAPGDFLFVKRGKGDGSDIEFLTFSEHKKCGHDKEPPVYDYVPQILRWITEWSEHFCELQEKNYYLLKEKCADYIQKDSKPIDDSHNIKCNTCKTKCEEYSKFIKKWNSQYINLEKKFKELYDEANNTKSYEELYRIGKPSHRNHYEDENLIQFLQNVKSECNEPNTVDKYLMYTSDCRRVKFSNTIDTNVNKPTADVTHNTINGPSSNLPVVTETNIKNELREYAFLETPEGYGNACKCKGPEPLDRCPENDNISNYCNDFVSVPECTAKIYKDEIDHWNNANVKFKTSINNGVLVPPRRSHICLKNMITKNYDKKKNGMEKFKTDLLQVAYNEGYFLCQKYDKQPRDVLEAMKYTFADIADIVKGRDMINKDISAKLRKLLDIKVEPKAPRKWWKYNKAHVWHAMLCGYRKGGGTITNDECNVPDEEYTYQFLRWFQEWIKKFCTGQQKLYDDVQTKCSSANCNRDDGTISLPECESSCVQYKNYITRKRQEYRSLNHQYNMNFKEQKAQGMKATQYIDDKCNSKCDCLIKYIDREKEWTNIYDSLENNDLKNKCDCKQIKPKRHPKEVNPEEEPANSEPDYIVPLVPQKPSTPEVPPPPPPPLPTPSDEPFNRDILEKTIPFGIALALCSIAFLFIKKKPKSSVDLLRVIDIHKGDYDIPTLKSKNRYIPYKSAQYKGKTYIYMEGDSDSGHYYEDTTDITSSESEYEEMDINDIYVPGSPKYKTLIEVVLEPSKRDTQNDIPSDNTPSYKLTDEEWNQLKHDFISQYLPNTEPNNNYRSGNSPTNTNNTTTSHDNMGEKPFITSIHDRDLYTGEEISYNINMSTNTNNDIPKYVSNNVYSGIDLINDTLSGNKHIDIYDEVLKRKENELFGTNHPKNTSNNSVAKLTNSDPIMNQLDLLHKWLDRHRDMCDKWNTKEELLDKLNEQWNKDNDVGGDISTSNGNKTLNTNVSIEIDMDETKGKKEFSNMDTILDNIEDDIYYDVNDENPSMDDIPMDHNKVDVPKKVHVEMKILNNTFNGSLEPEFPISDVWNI

Assay [2] concerns the target PfEMP1 TM284var1 on infected erythrocytes (P. falciparum) (UniProt I1X0L2). The assay is described as follows: flow cytometry on cells; late-stage infected erythrocytes (1x10^5) incubated 30 min at room temperature with α2M or α2M-MA (10 nM; titrated in Fig 2B) or IgM; detected with anti-α2M or anti-human IgM antibodies; in competition assays α2M and IgM added in separate steps; only the binder purified.

Assay [3] concerns the target PfEMP1 protein PF13_0003 on infected erythrocytes (P. falciparum 3D7). Described as above.
In assay [4] the target is PfEMP1 protein VarO on infected erythrocytes (P. falciparum). Described as above.
Assay [5] addresses native HB3VAR06 on infected erythrocytes (P. falciparum HB3). The assay is described as above.
The target of assay [6] is native IT4VAR04 on infected erythrocytes (P. falciparum IT4). Described as above.

No constants are given. Whether binding was seen depends on the method and setting. For part of these data: Binding calls can cover weak binding; strength is not graded here.

B1: α2-macroglobulin (α2M), native (protein, UniProt P01023 24-1474)
chain: SVSGKPQYMVLVPSLLHTETTEKGCVLLSYLNETVTVSASLESVRGNRSLFTDLEAENDVLHCVAFAVPKSSSNEEVMFLTVQVKGPTQEFKKRTTVMVKNEDSLVFVQTDKSIYKPGQTVKFRVVSMDENFHPLNELIPLVYIQDPKGNRIAQWQSFQLEGGLKQFSFPLSSEPFQGSYKVVVQKKSGGRTEHPFTVEEFVLPKFEVQVTVPKIITILEEEMNVSVCGLYTYGKPVPGHVTVSICRKYSDASDCHGEDSQAFCEKFSGQLNSHGCFYQQVKTKVFQLKRKEYEMKLHTEAQIQEEGTVVELTGRQSSEITRTITKLSFVKVDSHFRQGIPFFGQVRLVDGKGVPIPNKVIFIRGNEANYYSNATTDEHGLVQFSINTTNVMGTSLTVRVNYKDRSPCYGYQWVSEEHEEAHHTAYLVFSPSKSFVHLEPMSHELPCGHTQTVQAHYILNGGTLLGLKKLSFYYLIMAKGGIVRTGTHGLLVKQEDMKGHFSISIPVKSDIAPVARLLIYAVLPTGDVIGDSAKYDVENCLANKVDLSFSPSQSLPASHAHLRVTAAPQSVCALRAVDQSVLLMKPDAELSASSVYNLLPEKDLTGFPGPLNDQDNEDCINRHNVYINGITYTPVSSTNEKDMYSFLEDMGLKAFTNSKIRKPKMCPQLQQYEMHGPEGLRVGFYESDVMGRGHARLVHVEEPHTETVRKYFPETWIWDLVVVNSAGVAEVGVTVPDTITEWKAGAFCLSEDAGLGISSTASLRAFQPFFVELTMPYSVIRGEAFTLKATVLNYLPKCIRVSVQLEASPAFLAVPVEKEQAPHCICANGRQTVSWAVTPKSLGNVNFTVSAEALESQELCGTEVPSVPEHGRKDTVIKPLLVEPEGLEKETTFNSLLCPSGGEVSEELSLKLPPNVVEESARASVSVLGDILGSAMQNTQNLLQMPYGCGEQNMVLFAPNIYVLDYLNETQQLTPEIKSKAIGYLNTGYQRQLNYKHYDGSYSTFGERYGRNQGNTWLTAFVLKTFAQARAYIFIDEAHITQALIWLSQRQKDNGCFRSSGSLLNNAIKGGVEDEVTLSAYITIALLEIPLTVTHPVVRNALFCLESAWKTAQEGDHGSHVYTKALLAYAFALAGNQDKRKEVLKSLNEEAVKKDNSVHWERPQKPKAPVGHFYEPQAPSAEVEMTSYVLLAYLTAQPAPTSEDLTSATNIVKWITKQQNAQGGFSSTQDTVVALHALSKYGAATFTRTGKAAQVTIQSSGTFSSKFQVDNNNRLLLQQVSLPELPGEYSMKVTGEGCVYLQTSLKYNILPEKEEFPFALGVQTLPQTCDEPKAHTSFQISLSVSYTGSRSASNMAIVDVKMVSGFIPLKPTVKMLERSNHVSRTEVSSNHVLIYLDKVSNQTLSLFFTVLQDVPVRDLKPAIVKVYDYYETDEFAIAEYNAPCSKDLGNA
Turning to B1, the binding result in assay [1] is “binds”; in assay [2], “binds”; in assay [3], “binds”; in assay [4], “binds”; in assay [5], “binds”; in assay [6], “no binding (tested: 10 nM)”.

Source of the values: paper PMC4489720.
